Laboratory results: PubChem BioAssay AID1259405 (NCATS, 2018)
The deposit covers about 50,000 reagents; this is an unselected part. Of all reagents, about 4,000 (8%) are marked active. 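Mouse siRNA library applied to hamster cells; one well for each siRNA.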 Unmarked entries are inactive. The numbers tell different reagents against one gene apart.

Purpose: 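Mouse-designed siRNAs used to find CHO productivity engineering targets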 (primary screen)
System: Chinese hamster CHO-K1 ovary cells with stable secreted eGFP expression
Reagent: single siRNA against mouse genes, 0.8 pmol siRNA per well (2 µl of 400 nM stock)
Time to read-out: 3 days
Measured: 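Percent of the per-plate non-targeting control median for intracellular GFP per well by laser scanning cytometry and for cell viability by ATP luminescence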
Reading the numbers: GFP, % of control: higher = more GFP per well, higher productivity; viability (ATP), % of control: higher = more viable cells (more ATP)
Active means: 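a knock-down is called active if GFP reaches 120% or more of non-targeting control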

target gene	reagent	GFP, % of control	viability (ATP), % of control
4921511C20Rik (RIKEN cDNA 4921511C20 gene)	1	71.1	44.1
4921511C20Rik (RIKEN cDNA 4921511C20 gene)	2	99.6	76.7
4921511C20Rik (RIKEN cDNA 4921511C20 gene)	3	104	101
Tsfm (Ts translation elongation factor, mitochondrial)	1	72.4	54.5
Tsfm (Ts translation elongation factor, mitochondrial)	2	68.1	77.8
Tsfm (Ts translation elongation factor, mitochondrial)	3	76.3	54.1
Ssty1 (spermiogenesis specific transcript on the Y 1)	1	75.4	73.8
Ssty1 (spermiogenesis specific transcript on the Y 1)	2	105	101
Ssty1 (spermiogenesis specific transcript on the Y 1)	3	54.4	40.6
Pdlim2 (PDZ and LIM domain 2)	1	94.1	91.8
Pdlim2 (PDZ and LIM domain 2)	2	94.9	80.9
Fv4 (Friend virus susceptibility 4)	1	98.1	93.9
Fv4 (Friend virus susceptibility 4)	2	75	80.5
Fv4 (Friend virus susceptibility 4)	3	115	76.1
Scml4 (Scm polycomb group protein like 4)	1	34.4	61.1
Scml4 (Scm polycomb group protein like 4)	2	59.6	88.6
Scml4 (Scm polycomb group protein like 4)	3	57.6	56.6
Strip1 (striatin interacting protein 1)	1	56.4	49.7
Strip1 (striatin interacting protein 1)	2	64.2	79
Strip1 (striatin interacting protein 1)	3	53.8	56.1
Gpa33 (glycoprotein A33 transmembrane)	1	82.1	71.4
Gpa33 (glycoprotein A33 transmembrane)	2	97.3	100
Bmal2 (basic helix-loop-helix ARNT like 2)	1	66.9	91.1
Bmal2 (basic helix-loop-helix ARNT like 2)	2	84.8	68.1
Brd7 (bromodomain containing 7)	1	59.3	61.9
Brd7 (bromodomain containing 7)	2	78.6	99
Brd7 (bromodomain containing 7)	3	38.4	55.2
Clec2h (C-type lectin domain family 2, member h)	1	138 (active)	93.6
Clec2h (C-type lectin domain family 2, member h)	2	70.1	69.3
Clec2h (C-type lectin domain family 2, member h)	3	71.3	84.8
Gata4 (GATA binding protein 4)	1	78	82.5
Gata4 (GATA binding protein 4)	2	73.4	67
Grin2d (glutamate receptor, ionotropic, NMDA2D (epsilon 4))	1	54.3	58.7
Grin2d (glutamate receptor, ionotropic, NMDA2D (epsilon 4))	2	52.6	43.7
Grin2d (glutamate receptor, ionotropic, NMDA2D (epsilon 4))	3	53.3	54.5
Asic5 (acid-sensing ion channel family member 5)	1	106	102
Asic5 (acid-sensing ion channel family member 5)	2	50.2	30.8
Asic5 (acid-sensing ion channel family member 5)	3	102	96.4
Tpo (thyroid peroxidase)	1	94	117
Tpo (thyroid peroxidase)	2	76.2	78.3
Tpo (thyroid peroxidase)	3	108	110
Pten (phosphatase and tensin homolog)	1	28.1	26.1
Pten (phosphatase and tensin homolog)	2	58.5	69.4
Pten (phosphatase and tensin homolog)	3	105	78
Pten (phosphatase and tensin homolog)	4	115	75.7
Pten (phosphatase and tensin homolog)	5	68.1	55.6
Pten (phosphatase and tensin homolog)	6	82.2	57.8
Klk1b9 (kallikrein 1-related peptidase b9)	1	66	147
Klk1b9 (kallikrein 1-related peptidase b9)	2	84.2	46.8
Klk1b9 (kallikrein 1-related peptidase b9)	3	95.5	87.7
Oser1 (oxidative stress responsive serine rich 1)	1	85.2	87
Oser1 (oxidative stress responsive serine rich 1)	2	77.8	65.6
Oser1 (oxidative stress responsive serine rich 1)	3	96.5	101
Pcgf3 (polycomb group ring finger 3)	1	66.5	66.9
Pcgf3 (polycomb group ring finger 3)	2	69.4	80.8
Pcgf3 (polycomb group ring finger 3)	3	66.1	40.7
Acsl6 (acyl-CoA synthetase long-chain family member 6)	1	77.5	53.9
Acsl6 (acyl-CoA synthetase long-chain family member 6)	2	59	72.9
Acsl6 (acyl-CoA synthetase long-chain family member 6)	3	29.7	62.5
Smc4 (structural maintenance of chromosomes 4)	1	108	104
Smc4 (structural maintenance of chromosomes 4)	2	57.9	40.3
Smc4 (structural maintenance of chromosomes 4)	3	52.3	67.8
Ifitm6 (interferon induced transmembrane protein 6)	1	77.1	69.3
Ifitm6 (interferon induced transmembrane protein 6)	2	80.2	82.1
Ifitm6 (interferon induced transmembrane protein 6)	3	83.1	81.6
Aph1b (aph1 homolog B, gamma secretase subunit)	1	73.7	77.9
Aph1b (aph1 homolog B, gamma secretase subunit)	2	73.2	94.4
Bag3 (BCL2-associated athanogene 3)	1	81.5	53.4
Bag3 (BCL2-associated athanogene 3)	2	120	83.6
Bag3 (BCL2-associated athanogene 3)	3	105	103
Pgbd1 (piggyBac transposable element derived 1)	1	90.3	72.1
Pgbd1 (piggyBac transposable element derived 1)	2	49.2	69
Pgbd1 (piggyBac transposable element derived 1)	3	82.9	106
Tbc1d9b (TBC1 domain family, member 9B)	1	85.9	34.7
Tbc1d9b (TBC1 domain family, member 9B)	2	58.3	56.1
Tbc1d9b (TBC1 domain family, member 9B)	3	42.5	33.1
Morn2 (MORN repeat containing 2)	1	99.5	94.3
Morn2 (MORN repeat containing 2)	2	64.3	71.9
Morn2 (MORN repeat containing 2)	3	81	63.7
Amz2 (archaelysin family metallopeptidase 2)	1	161 (active)	120
Amz2 (archaelysin family metallopeptidase 2)	2	46.1	52.2
Amz2 (archaelysin family metallopeptidase 2)	3	84.6	77.3
Cadps2 (Ca2+-dependent activator protein for secretion 2)	1	33.6	45.6
Cadps2 (Ca2+-dependent activator protein for secretion 2)	2	58.5	59.7
Cadps2 (Ca2+-dependent activator protein for secretion 2)	3	85.3	51.4

Sorted by “GFP, % of control” (ascending): 13 of the entries above.
target gene	reagent	GFP, % of control	viability (ATP), % of control
Tbc1d9b (TBC1 domain family, member 9B)	3	42.5	33.1
Pgbd1 (piggyBac transposable element derived 1)	2	49.2	69
Tbc1d9b (TBC1 domain family, member 9B)	2	58.3	56.1
Morn2 (MORN repeat containing 2)	2	64.3	71.9
Aph1b (aph1 homolog B, gamma secretase subunit)	2	73.2	94.4
Aph1b (aph1 homolog B, gamma secretase subunit)	1	73.7	77.9
Bag3 (BCL2-associated athanogene 3)	1	81.5	53.4
Pgbd1 (piggyBac transposable element derived 1)	3	82.9	106
Tbc1d9b (TBC1 domain family, member 9B)	1	85.9	34.7
Pgbd1 (piggyBac transposable element derived 1)	1	90.3	72.1
Morn2 (MORN repeat containing 2)	1	99.5	94.3
Bag3 (BCL2-associated athanogene 3)	3	105	103
Bag3 (BCL2-associated athanogene 3)	2	120	83.6
